Source: patent publication US20240009205A1, “THERAPEUTIC COMBINATION FOR THE TREATMENT OF BREAST CANCER” (IFOM - FONDAZIONE ISTITUTO FIRC DI ONCOLOGIA MOLECOLARE, priority 2020, published 2024)
At least one structure is not confirmed: it was looked up by name or label, or the drawing left a doubt.

System: MCF7 cells
Experiment: cell viability assay, control and EGR1-silenced MCF7
Type: cell-based, human
Settings: GDC0068 1 μM, AZD5363 400 nM, LY294002 2 μM

`O=c1cc(N2CCOCC2)oc2c(-c3ccccc3)cccc12` [LY294002] was tested, and the “protection of EGR1-silenced BC cells from combined ET and STS” value was “abolished such protection”.
